{"source": "patent US20090053187A1", "about": "(priority 2005, published 2009)", "test_system": "Bacillus anthracis STI-PRTS", "details": "mouse, in vivo", "note": "At least one structure is not confirmed: it was looked up by name or label, or the drawing left a doubt."}
{"smiles": "C[C@H]1c2cccc(O)c2C(=O)C2=C(O)[C@]3(O)C(=O)C(C(N)=O)=C(O)[C@@H](N(C)C)[C@@H]3[C@@H](O)[C@@H]21", "note": "[doxycycline]", "values": [{"measurement": "efficiency of therapy", "result": "inefficient"}]}
